# Experimental data: the supplement of paper PMC8728848
# This is one part of the list.
# Columns and labels:
# Experiment in all cases: glycan array binding signal (z-score within array); higher = stronger binding
# Details in all cases: glycan notation: IUPAC condensed, linker removed
# [1] = biological target: GlcNAc(a1-3)Gal(b1-4)GlcNAc
# Method in brief: (§1)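 Arrays were curated from the Consortium for Functional Glycomics database, 3228 in total, and kept only where the protein sequence was available. Binding is expressed as a within-array Z-score. This score was averaged across arrays of the same protein sequence at different concentrations or buffers and across linkers, and negative values can be read as non-binding.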
# [2] = biological target: GlcNAc(a1-4)Gal(b1-3)GlcNAc
# Method in brief: as §1
# [3] = biological target: GlcNAc(a1-4)Gal(b1-4)GalNAc
# Method in brief: as §1
# [4] = biological target: GlcNAc(a1-4)Gal(b1-4)GlcNAc
# Method in brief: as §1
# [5] = biological target: GlcNAc(a1-4)Gal(b1-4)GlcNAc(b1-3)Gal(b1-4)Glc
# Method in brief: as §1
# [6] = biological target: GlcNAc(a1-4)Gal(b1-4)GlcNAc(b1-3)Gal(b1-4)GlcNAc
# Method in brief: as §1
# [7] = biological target: GlcNAc(a1-4)Gal(b1-4)GlcNAc(b1-3)Gal(b1-4)GlcNAc(b1-3)Gal(b1-4)GlcNAc
# Method in brief: as §1
# [8] = biological target: GlcNAc(a1-4)Gal(b1-4)GlcNAc(b1-3)Gal(b1-4)[Fuc(a1-3)]GlcNAc(b1-3)Gal(b1-4)[Fuc(a1-3)]GlcNAc
# Method in brief: as §1
# [9] = biological target: GlcNAc(a1-6)Gal(b1-4)GlcNAc
# Method in brief: as §1
# [10] = biological target: GlcNAc(b1-2)Gal(b1-3)GalNAc
# Method in brief: as §1
# [11] = biological target: GlcNAc(b1-2)Man(a1-3)[GlcNAc(b1-2)Man(a1-6)]Man(b1-4)GlcNAc(b1-4)GlcNAc
# Method in brief: as §1
# [12] = biological target: GlcNAc(b1-2)Man(a1-3)[GlcNAc(b1-2)Man(a1-6)]Man(b1-4)GlcNAc(b1-4)[Fuc(a1-6)]GlcNAc
# Method in brief: as §1
# [13] = biological target: GlcNAc(b1-2)Man(a1-3)[GlcNAc(b1-4)][GlcNAc(b1-2)Man(a1-6)]Man(b1-4)GlcNAc(b1-4)GlcNAc
# Method in brief: as §1
# [14] = biological target: GlcNAc(b1-2)Man(a1-3)[GlcNAc(b1-4)][GlcNAc(b1-2)Man(a1-6)]Man(b1-4)GlcNAc(b1-4)[Fuc(a1-6)]GlcNAc
# Method in brief: as §1
# [15] = biological target: GlcNAc(b1-2)[GlcNAc(b1-4)]Man(a1-3)[GlcNAc(b1-2)Man(a1-6)]Man(b1-4)GlcNAc(b1-4)GlcNAc
# Method in brief: as §1
# [16] = biological target: GlcNAc(b1-2)[GlcNAc(b1-4)]Man(a1-3)[GlcNAc(b1-4)][GlcNAc(b1-2)Man(a1-6)]Man(b1-4)GlcNAc(b1-4)GlcNAc
# Method in brief: as §1
# [17] = biological target: GlcNAc(b1-2)[GlcNAc(b1-4)]Man(a1-3)[GlcNAc(b1-4)][GlcNAc(b1-2)[GlcNAc(b1-6)]Man(a1-6)]Man(b1-4)GlcNAc(b1-4)GlcNAc
# Method in brief: as §1
# [18] = biological target: GlcNAc(b1-2)[GlcNAc(b1-4)]Man(a1-3)[GlcNAc(b1-4)][GlcNAc(b1-2)[GlcNAc(b1-6)]Man(a1-6)]Man(b1-4)GlcNAc(b1-4)[Fuc(a1-6)]GlcNAc
# Method in brief: as §1
# [19] = biological target: GlcNAc(b1-2)[GlcNAc(b1-6)]Man(a1-6)[GlcNAc(b1-2)Man(a1-3)]Man(b1-4)GlcNAc(b1-4)GlcNAc
# Method in brief: as §1
# [20] = biological target: GlcNAc(b1-2)[GlcNAc(b1-6)]Man(a1-6)[GlcNAc(b1-2)Man(a1-3)]Man(b1-4)GlcNAc(b1-4)[Fuc(a1-6)]GlcNAc
# Method in brief: as §1
# [21] = biological target: GlcNAc(b1-2)[GlcNAc(b1-6)]Man(a1-6)[GlcNAc(b1-4)][GlcNAc(b1-2)Man(a1-3)]Man(b1-4)GlcNAc(b1-4)GlcNAc
# Method in brief: as §1
# [22] = biological target: GlcNAc(b1-3)Fuc
# Method in brief: as §1
# [23] = biological target: GlcNAc(b1-3)Gal
# Method in brief: as §1
# [24] = biological target: GlcNAc(b1-3)Gal(b1-3)GalNAc
# Method in brief: as §1
# [25] = biological target: GlcNAc(b1-3)Gal(b1-4)Glc
# Method in brief: as §1
# [26] = biological target: GlcNAc(b1-3)Gal(b1-4)GlcNAc
# Method in brief: as §1
# [27] = biological target: GlcNAc(b1-3)Gal(b1-4)GlcNAc(b1-2)Man(a1-3)[GlcNAc(b1-3)Gal(b1-4)GlcNAc(b1-2)Man(a1-6)]Man(b1-4)GlcNAc(b1-4)GlcNAc
# Method in brief: as §1
# [28] = biological target: GlcNAc(b1-3)Gal(b1-4)GlcNAc(b1-2)Man(a1-3)[GlcNAc(b1-3)Gal(b1-4)GlcNAc(b1-2)Man(a1-6)]Man(b1-4)GlcNAc(b1-4)[Fuc(a1-6)]GlcNAc
# Method in brief: as §1
# [29] = biological target: GlcNAc(b1-3)Gal(b1-4)GlcNAc(b1-2)[GlcNAc(b1-3)Gal(b1-4)GlcNAc(b1-6)]Man(a1-6)[GlcNAc(b1-3)Gal(b1-4)GlcNAc(b1-2)Man(a1-3)]Man(b1-4)GlcNAc(b1-4)GlcNAc
# Method in brief: as §1
# [30] = biological target: GlcNAc(b1-3)Gal(b1-4)GlcNAc(b1-3)Gal(b1-4)GlcNAc
# Method in brief: as §1
# [31] = biological target: GlcNAc(b1-3)Gal(b1-4)GlcNAc(b1-3)Gal(b1-4)GlcNAc(b1-2)Man(a1-3)[GlcNAc(b1-3)Gal(b1-4)GlcNAc(b1-3)Gal(b1-4)GlcNAc(b1-2)Man(a1-6)]Man(b1-4)GlcNAc(b1-4)GlcNAc
# Method in brief: as §1
# [32] = biological target: GlcNAc(b1-3)Gal(b1-4)GlcNAc(b1-3)Gal(b1-4)GlcNAc(b1-2)Man(a1-3)[GlcNAc(b1-3)Gal(b1-4)GlcNAc(b1-3)Gal(b1-4)GlcNAc(b1-2)Man(a1-6)]Man(b1-4)GlcNAc(b1-4)[Fuc(a1-6)]GlcNAc
# Method in brief: as §1
# [33] = biological target: GlcNAc(b1-3)Gal(b1-4)GlcNAc(b1-3)Gal(b1-4)GlcNAc(b1-2)[GlcNAc(b1-3)Gal(b1-4)GlcNAc(b1-3)Gal(b1-4)GlcNAc(b1-6)]Man(a1-6)[GlcNAc(b1-3)Gal(b1-4)GlcNAc(b1-3)Gal(b1-4)GlcNAc(b1-2)Man(a1-3)]Man(b1-4)GlcNAc(b1-4)[Fuc(a1-6)]GlcNAc
# Method in brief: as §1
# [34] = biological target: GlcNAc(b1-3)Gal(b1-4)GlcNAc(b1-3)Gal(b1-4)GlcNAc(b1-3)Gal(b1-4)GlcNAc(b1-2)Man(a1-3)[GlcNAc(b1-3)Gal(b1-4)GlcNAc(b1-3)Gal(b1-4)GlcNAc(b1-3)Gal(b1-4)GlcNAc(b1-2)Man(a1-6)]Man(b1-4)GlcNAc(b1-4)GlcNAc
# Method in brief: as §1
# [35] = biological target: GlcNAc(b1-3)Gal(b1-4)GlcNAc(b1-3)Gal(b1-4)GlcNAc(b1-3)Gal(b1-4)GlcNAc(b1-2)Man(a1-3)[GlcNAc(b1-3)Gal(b1-4)GlcNAc(b1-3)Gal(b1-4)GlcNAc(b1-3)Gal(b1-4)GlcNAc(b1-2)Man(a1-6)]Man(b1-4)GlcNAc(b1-4)[Fuc(a1-6)]GlcNAc
# Method in brief: as §1
# [36] = biological target: GlcNAc(b1-3)Gal(b1-4)GlcNAc(b1-3)Gal(b1-4)GlcNAc(b1-3)Gal(b1-4)GlcNAc(b1-2)[GlcNAc(b1-3)Gal(b1-4)GlcNAc(b1-3)Gal(b1-4)GlcNAc(b1-3)Gal(b1-4)GlcNAc(b1-6)]Man(a1-6)[GlcNAc(b1-3)Gal(b1-4)GlcNAc(b1-3)Gal(b1-4)GlcNAc(b1-3)Gal(b1-4)GlcNAc(b1-2)Man(a1-3)]Man(b1-4)GlcNAc(b1-4)[Fuc(a1-6)]GlcNAc
# Method in brief: as §1
# [37] = biological target: GlcNAc(b1-3)Gal(b1-4)GlcNAc(b1-3)Gal(b1-4)GlcNAc(b1-3)Gal(b1-4)GlcNAc(b1-3)Gal(b1-4)GlcNAc(b1-2)Man(a1-3)[GlcNAc(b1-3)Gal(b1-4)GlcNAc(b1-3)Gal(b1-4)GlcNAc(b1-3)Gal(b1-4)GlcNAc(b1-3)Gal(b1-4)GlcNAc(b1-2)Man(a1-6)]Man(b1-4)GlcNAc(b1-4)GlcNAc
# Method in brief: as §1
# [38] = biological target: GlcNAc(b1-3)Gal(b1-4)GlcNAc(b1-3)Gal(b1-4)GlcNAc(b1-3)Gal(b1-4)GlcNAc(b1-3)Gal(b1-4)GlcNAc(b1-2)Man(a1-3)[GlcNAc(b1-3)Gal(b1-4)GlcNAc(b1-3)Gal(b1-4)GlcNAc(b1-3)Gal(b1-4)GlcNAc(b1-3)Gal(b1-4)GlcNAc(b1-2)Man(a1-6)]Man(b1-4)GlcNAc(b1-4)[Fuc(a1-6)]GlcNAc
# Method in brief: as §1
binder,measurement,setting,value
Epa19 (Candida glabrata) (protein) MGSSHHHHHHSSGLVPRGSHMASSKDPTRFPIGCSPQVLKTQPGLAVKLYSYGHPVPGCSYITYQYPDFPRSGYKKERKLADITGVNGKIDIDLKPNDPCRVLTGHLPSNYNYPDTLTYTNFTMILYGYFQPKVTGYHTFNLEADDLLFMNLGAGNAFDCCKAESTLDNFGNYQSYSLWGSDYAKANITVFLVSGVYYPIRLFYVNRDNNAVIDFSFTTEFDKEKVHDFTSYFFSASDGEQCPGSV,glycan array binding signal (z-score),[1],-0.501
same,glycan array binding signal (z-score),[2],-0.113
same,glycan array binding signal (z-score),[3],-0.434
same,glycan array binding signal (z-score),[4],0.311
same,glycan array binding signal (z-score),[5],0.565
same,glycan array binding signal (z-score),[6],0.576
same,glycan array binding signal (z-score),[7],-0.551
same,glycan array binding signal (z-score),[8],0.046
same,glycan array binding signal (z-score),[9],-0.568
same,glycan array binding signal (z-score),[10],-0.4
same,glycan array binding signal (z-score),[11],-0.104
same,glycan array binding signal (z-score),[12],-0.259
same,glycan array binding signal (z-score),[13],0.2
same,glycan array binding signal (z-score),[14],-0.242
same,glycan array binding signal (z-score),[15],-0.408
same,glycan array binding signal (z-score),[16],-0.548
same,glycan array binding signal (z-score),[17],-0.443
same,glycan array binding signal (z-score),[18],0.566
same,glycan array binding signal (z-score),[19],-0.103
same,glycan array binding signal (z-score),[20],-0.413
same,glycan array binding signal (z-score),[21],-1.05
same,glycan array binding signal (z-score),[22],-0.043
same,glycan array binding signal (z-score),[23],-1.24
same,glycan array binding signal (z-score),[24],-0.152
same,glycan array binding signal (z-score),[25],-0.077
same,glycan array binding signal (z-score),[26],-0.29
same,glycan array binding signal (z-score),[27],-0.192
same,glycan array binding signal (z-score),[28],-0.291
same,glycan array binding signal (z-score),[29],-0.051
same,glycan array binding signal (z-score),[30],-0.681
same,glycan array binding signal (z-score),[31],0.941
same,glycan array binding signal (z-score),[32],0.598
same,glycan array binding signal (z-score),[33],3.06
same,glycan array binding signal (z-score),[34],0.398
same,glycan array binding signal (z-score),[35],1.33
same,glycan array binding signal (z-score),[36],2.24
same,glycan array binding signal (z-score),[37],0.357
same,glycan array binding signal (z-score),[38],0.417

# Retrieved one by one from the list above:
binder,measurement,setting,value
Epa19 (Candida glabrata) (protein) MGSSHHHHHHSSGLVPRGSHMASSKDPTRFPIGCSPQVLKTQPGLAVKLYSYGHPVPGCSYITYQYPDFPRSGYKKERKLADITGVNGKIDIDLKPNDPCRVLTGHLPSNYNYPDTLTYTNFTMILYGYFQPKVTGYHTFNLEADDLLFMNLGAGNAFDCCKAESTLDNFGNYQSYSLWGSDYAKANITVFLVSGVYYPIRLFYVNRDNNAVIDFSFTTEFDKEKVHDFTSYFFSASDGEQCPGSV,glycan array binding signal (z-score),[15],-0.408
same,glycan array binding signal (z-score),[29],-0.051
